Positions count from the first letter of the chain named. Results are given in words; binding and its absence hold for the method and conditions named. In cells and extracts the contact can be indirect. Some binding calls cover weakened binding; strength is not graded here. Where a sequence is shown, tags or fusion partners need not be part of it.
Tests used:
Test in all cases: co-IP; Sec24 immunoprecipitated from 2 mg yeast lysate (20 mM Hepes pH 7.4, 150 mM NaCl, 1% Triton X-100, protease and phosphatase inhibitors; with or without DSP cross-linker) with rabbit polyclonal anti-Sec24 serum and protein A-sepharose, 4°C; blotted with anti-myc for Atg9-13myc; cells in SMD or starved in SD-N (4 hr at 30°C; hrr25-5 2 hr at 37°C); ypt7∆, sec24 mutant, WT or hrr25-5 cells
[1] = target: T1, Sec24-T324E/T325E (S. cerevisiae) (UniProt P40482)
T1 sequence: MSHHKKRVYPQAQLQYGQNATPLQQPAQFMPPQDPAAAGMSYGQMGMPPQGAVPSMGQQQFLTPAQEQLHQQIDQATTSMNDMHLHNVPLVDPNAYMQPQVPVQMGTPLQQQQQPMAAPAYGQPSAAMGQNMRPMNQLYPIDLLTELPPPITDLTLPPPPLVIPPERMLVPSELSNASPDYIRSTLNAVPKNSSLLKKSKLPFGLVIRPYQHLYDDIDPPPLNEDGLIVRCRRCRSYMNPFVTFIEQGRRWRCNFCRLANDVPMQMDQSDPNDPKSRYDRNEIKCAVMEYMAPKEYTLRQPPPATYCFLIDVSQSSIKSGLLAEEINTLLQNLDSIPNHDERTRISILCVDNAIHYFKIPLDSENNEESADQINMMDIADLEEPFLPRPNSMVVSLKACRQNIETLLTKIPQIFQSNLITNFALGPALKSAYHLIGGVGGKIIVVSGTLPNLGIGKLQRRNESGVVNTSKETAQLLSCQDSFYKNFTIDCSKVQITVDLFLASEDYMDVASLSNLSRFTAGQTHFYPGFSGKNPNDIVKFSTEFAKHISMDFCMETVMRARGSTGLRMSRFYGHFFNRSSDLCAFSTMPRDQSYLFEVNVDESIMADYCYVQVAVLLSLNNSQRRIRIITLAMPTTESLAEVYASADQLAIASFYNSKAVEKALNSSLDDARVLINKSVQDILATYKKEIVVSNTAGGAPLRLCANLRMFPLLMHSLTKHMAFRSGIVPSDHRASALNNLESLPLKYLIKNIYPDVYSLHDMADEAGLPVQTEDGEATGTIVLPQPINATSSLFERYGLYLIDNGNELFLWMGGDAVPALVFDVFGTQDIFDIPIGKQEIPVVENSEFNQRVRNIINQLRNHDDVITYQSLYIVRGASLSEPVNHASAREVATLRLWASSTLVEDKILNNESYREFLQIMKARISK

[2] = target: T2, Sec24 T325E/T328E (S. cerevisiae) (UniProt P40482)
T2 sequence: T1 sequence with E324T, T328E

[3] = target: T3, Sec24 (wild type, in yeast lysate) (S. cerevisiae) (UniProt P40482)
T3 sequence: T1 sequence with E324T, E325T

Measured: binding

B1: Atg9-13myc (protein, UniProt Q12142 1-997)
chain: MERDEYQLPNSHGKNTFLSRIFGLQSDEVNPSLNSQEMSNFPLPDIERGSSLLHSTNDSREDVDENDLRVPESDQGTSTEEEDEVDEEQVQAYAPQISDGLDGDHQLNSVTSKENVLETEKSNLERLVEGSTDDSVPKVGQLSSEEEEDNEFINNDGFDDDTPLFQKSKIHEFSSKKSNTIEDGKRPLFFRHILQNNRPQRDTQKLFTSSNAIHHDKDKSANNGPRNINGNQKHGTKYFGSATQPRFTGSPLNNTNRFTKLFPLRKPNLLSNISVLNNTPEDRINTLSVKERALWKWANVENLDIFLQDVYNYYLGNGFYCIILEKILNICTLLFVVFVSTYMGHCVDYSKLPTSHRVSDIIIDKCYSNSITGFTKFFLWMFYFFVILKIVQLYFDVQKLSELQNFYKYLLNISDDELQTLPWQNVIQQLMYLKDQNAMTANVVEVKAKNRIDAHDVANRIMRRENYLIALYNSDILNLSLPIPLFRTNVLTKTLEWNINLCVMGFVFNESGFIKQSILKPSQREFTREELQKRFMLAGFLNIILAPFLVTYFVLLYFFRYFNEYKTSPGSIGARQYTPIAEWKFREYNELYHIFKKRISLSTTLANKYVDQFPKEKTNLFLKFVSFICGSFVAILAFLTVFDPENFLNFEITSDRSVIFYITILGAIWSVSRNTITQEYHVFDPEETLKELYEYTHYLPKEWEGRYHKEEIKLEFCKLYNLRIVILLRELTSLMITPFVLWFSLPSSAGRIVDFFRENSEYVDGLGYVCKYAMFNMKNIDGEDTHSMDEDSLTKKIAVNGSHTLNSKRRSKFTAEDHSDKDLANNKMLQSYVYFMDDYSNSENLTGKYQLPAKKGYPNNEGDSFLNNKYSWRKQFQPGQKPELFRIGKHALGPGHNISPAIYSTRNPGKNWDNNNNGDDIKNGTNNATAKNDDNNGNNDHEYVLTESFLDSGAFPNHDVIDHNKMLNSNYNGNGILNKGGVLGLVKEYYKKSDVGR
binds: [1] | [2] | [3]

— article PMC5148606
